In PMC11374673, “Discovery of isoquinoline sulfonamides as allosteric gyrase inhibitors with activity against fluoroquinolone-resistant bacteria” (Nature Chemistry, 2024):
Values joined by “and” are separate entries in the source; they are usually repeats but may differ in a detail not shown here. Identical values can stand only once. The source gives many values for each of these; only a part stands here.

System: E. coli W3110
Test: Checkerboard assay with PMBN;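 for checkerboard plate reading, replicate wells: OD600 read after 20 h incubation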
Settings: for Checkerboard well reading (growth): single wells (triplicate)

In the case of `O=S(=O)(NC[C@@H]1CC[C@H](c2ccc(-c3cccnc3)cc2)N1)c1cccc2cnccc12` [LEI-800], the “checkerboard plate reading, replicate wells” value (from here on “checkerboard plate reading”) (LEI-800 0.195312 µM + PMBN 0 µM) is reported as 0.535 and 0.5203 and 0.5192, the “checkerboard plate reading” value (LEI-800 0.195312 µM + PMBN 0.5 µM) is reported as 0.5011 and 0.522 and 0.5263 and the “checkerboard plate reading” value (LEI-800 0.195312 µM + PMBN 1 µM) is reported as 0.4979 and 0.442 and 0.4655. For the same compound, the “checkerboard plate reading” value (LEI-800 0.195312 µM + PMBN 2 µM) was 0.3541 and 0.3011 and 0.3007, the “checkerboard plate reading” value (LEI-800 0.195312 µM + PMBN 4 µM) was 0.2087 and 0.215 and 0.2092 and the “checkerboard plate reading” value (LEI-800 0.195312 µM + PMBN 8 µM) was 0.1958 and 0.1923 and 0.188. The “checkerboard plate reading” value (LEI-800 0.195312 µM + PMBN 16 µM) was 0.1997 and 0.227 and 0.2301, the “checkerboard plate reading” value (LEI-800 0.195312 µM + PMBN 32 µM) was 0.2097 and 0.1963 and 0.1928 and the “checkerboard plate reading” value (LEI-800 0.390625 µM + PMBN 0 µM) was 0.4906 and 0.4781 and 0.4958. For the same compound, the “checkerboard plate reading” value (LEI-800 0.390625 µM + PMBN 0.5 µM) was 0.4403 and 0.4459 and 0.4522, the “checkerboard plate reading” value (LEI-800 0.390625 µM + PMBN 1 µM) was 0.3216 and 0.2987 and 0.3462 and the “checkerboard plate reading” value (LEI-800 0.390625 µM + PMBN 2 µM) was 0.1657 and 0.243 and 0.1494. For the same compound, the “checkerboard plate reading” value (LEI-800 0.390625 µM + PMBN 4 µM) was 0.1402 and 0.1389 and 0.1296, the “checkerboard plate reading” value (LEI-800 0.390625 µM + PMBN 8 µM) was 0.1397 and 0.1401 and 0.1413 and the “checkerboard plate reading” value (LEI-800 0.390625 µM + PMBN 16 µM) was 0.1452 and 0.1512 and 0.1524. For the same compound, the “checkerboard plate reading” value (LEI-800 0.390625 µM + PMBN 32 µM) was 0.1585 and 0.1496 and 0.1456, the “checkerboard plate reading” value (LEI-800 0.78125 µM + PMBN 0 µM) was 0.4149 and 0.4088 and 0.4335 and the “checkerboard plate reading” value (LEI-800 0.78125 µM + PMBN 0.5 µM) was 0.135 and 0.1359 and 0.1369. The “checkerboard plate reading” value (LEI-800 0.78125 µM + PMBN 1 µM) was 0.1543 and 0.138 and 0.1466, the “checkerboard plate reading” value (LEI-800 0.78125 µM + PMBN 2 µM) was 0.1536 and 0.147 and 0.1407 and the “checkerboard plate reading” value (LEI-800 0.78125 µM + PMBN 4 µM) was 0.1464 and 0.1357 and 0.1351. For the same compound, the “checkerboard plate reading” value (LEI-800 0.78125 µM + PMBN 8 µM) was 0.1367 and 0.1386 and 0.1393, the “checkerboard plate reading” value (LEI-800 0.78125 µM + PMBN 16 µM) was 0.1384 and 0.1474 and 0.1551 and the “checkerboard plate reading” value (LEI-800 0.78125 µM + PMBN 32 µM) was 0.1521 and 0.1446 and 0.1389. The “checkerboard plate reading” value (LEI-800 1.5625 µM + PMBN 0 µM) was 0.3398 and 0.3215 and 0.3217, the “checkerboard plate reading” value (LEI-800 1.5625 µM + PMBN 0.5 µM) was 0.1453 and 0.1484 and 0.1497 and the “checkerboard plate reading” value (LEI-800 1.5625 µM + PMBN 1 µM) was 0.1501 and 0.1492. For the same compound, the “checkerboard plate reading” value (LEI-800 1.5625 µM + PMBN 8 µM) was 0.1488 and 0.1504 and 0.1495, the “checkerboard plate reading” value (LEI-800 1.5625 µM + PMBN 16 µM) was 0.1527 and 0.1512 and 0.1597 and the “checkerboard plate reading” value (LEI-800 1.5625 µM + PMBN 32 µM) was 0.1409 and 0.1426 and 0.1439.

`O=S(=O)(NC[C@H]1CC[C@@H](c2ccc(-c3ccc(F)nc3)cc2)N1)c1cccc2cnccc12` [LEI-801] was tested, and the “Checkerboard well reading (growth)” value (LEI-801 3.125 µM + PMBN 0 µM) was 0.8382 and 0.7974 and 0.732, the “Checkerboard well reading (growth)” value (LEI-801 3.125 µM + PMBN 0.5 µM) was 0.6863 and 0.6929 and 0.7137 and the “Checkerboard well reading (growth)” value (LEI-801 3.125 µM + PMBN 1 µM) was 0.6816 and 0.7281 and 0.6928. For the same compound, the “Checkerboard well reading (growth)” value (LEI-801 3.125 µM + PMBN 2 µM) was 0.5743 and 0.5496 and 0.5936, the “Checkerboard well reading (growth)” value (LEI-801 3.125 µM + PMBN 4 µM) was 0.538 and 0.5055 and 0.4178 and the “Checkerboard well reading (growth)” value (LEI-801 3.125 µM + PMBN 8 µM) was 0.2861 and 0.2251 and 0.3302. The “Checkerboard well reading (growth)” value (LEI-801 3.125 µM + PMBN 16 µM) was 0.2551 and 0.2565 and 0.2074, the “Checkerboard well reading (growth)” value (LEI-801 3.125 µM + PMBN 32 µM) was 0.2729 and 0.1999 and 0.1998 and the “Checkerboard well reading (growth)” value (LEI-801 6.25 µM + PMBN 0 µM) was 0.8581 and 0.7322 and 0.7314. For the same compound, the “Checkerboard well reading (growth)” value (LEI-801 6.25 µM + PMBN 0.5 µM) was 0.6716 and 0.6113 and 0.629, the “Checkerboard well reading (growth)” value (LEI-801 6.25 µM + PMBN 1 µM) was 0.4558 and 0.476 and 0.5078 and the “Checkerboard well reading (growth)” value (LEI-801 6.25 µM + PMBN 2 µM) was 0.3155 and 0.3496 and 0.1816. For the same compound, the “Checkerboard well reading (growth)” value (LEI-801 6.25 µM + PMBN 4 µM) was 0.2201 and 0.1713 and 0.1584, the “Checkerboard well reading (growth)” value (LEI-801 6.25 µM + PMBN 8 µM) was 0.1406 and 0.1377 and 0.1289 and the “Checkerboard well reading (growth)” value (LEI-801 6.25 µM + PMBN 16 µM) was 0.1351 and 0.1367 and 0.144. The “Checkerboard well reading (growth)” value (LEI-801 6.25 µM + PMBN 32 µM) was 0.1452 and 0.1514 and 0.1597, the “Checkerboard well reading (growth)” value (LEI-801 12.5 µM + PMBN 0 µM) was 0.7627 and 0.683 and 0.6448 and the “Checkerboard well reading (growth)” value (LEI-801 12.5 µM + PMBN 0.5 µM) was 0.5446 and 0.5575 and 0.5342. For the same compound, the “Checkerboard well reading (growth)” value (LEI-801 12.5 µM + PMBN 4 µM) was 0.1492 and 0.1392, the “Checkerboard well reading (growth)” value (LEI-801 12.5 µM + PMBN 8 µM) was 0.1454 and 0.1336 and 0.1401 and the “Checkerboard well reading (growth)” value (LEI-801 12.5 µM + PMBN 16 µM) was 0.1384 and 0.1425 and 0.1392. The “Checkerboard well reading (growth)” value (LEI-801 12.5 µM + PMBN 32 µM) was 0.1398 and 0.147 and 0.1549.
